# Earlier results as cited in patent publication US10028963B2, “Methods for treating intrapulmonary infections” (priority 2011, dated 2018).
# At least one compound was matched to its structure with a doubt left.
# System: Pseudomonas aeruginosa including multi-drug resistant strains
# Conditions: based on current surveillance data
structure (smiles),measurement,value
Cn1c(N)c(NC(=O)NCCN)c[n+]1CC1=C(C(=O)O)N2C(=O)[C@@H](NC(=O)/C(=N\OC(C)(C)C(=O)[O-])c3nsc(N)n3)[C@H]2SC1 [ceftolozane],Share of Pseudomonas aeruginosa inhibited at a concentration of 8 μg/mL,99%
